The record followed here is US20040175714A1.

These are yes or no findings as the source states them, for the method shown. Some binding calls cover weakened binding; strength is not graded here. Sequences can lack the tags named with a protein.

Assay [1] concerns the target T1, human protooncogene KG-19 protein product, as LexA fusion (bait) (human) (UniProt Q8WY22).
T1 sequence (looked up): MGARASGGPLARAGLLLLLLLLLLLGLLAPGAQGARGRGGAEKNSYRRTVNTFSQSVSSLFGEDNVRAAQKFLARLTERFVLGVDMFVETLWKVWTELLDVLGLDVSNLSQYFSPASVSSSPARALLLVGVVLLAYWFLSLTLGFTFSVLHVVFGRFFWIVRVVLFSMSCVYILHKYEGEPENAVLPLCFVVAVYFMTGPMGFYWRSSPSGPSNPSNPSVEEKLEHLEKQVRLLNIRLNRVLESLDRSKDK
Kind of assay: yeast two-hybrid (LexA system), colony lifting assay, lacZ reporter on X-gal; KG-19 as LexA bait, KG-20 clone from AD fusion library.

The target in assay [2] is T1, human protooncogene KG-19 protein product, as LexA fusion (bait) (human). Kind of assay: yeast two-hybrid screen.

B1: KG-20 protein (product of human protooncogene KG-20), as activation-domain fusion clone from a human fetal brain library (protein, not shown: large carriers)
chain: MTLDNINLAAVDRIIRVDHAGEYGANRIYAGQMAVLGRTSVGPVIQKMWDQEKDHLKKFNELMVMFRVRPTVLMPLWNVLGFALGAGTALLGKEGAMACTVAVEESIAHHYNNQIRTLMEEDPEKYEELLQLIKKFRDEELEHHDIGLDHDAELAPAYAVLKSIIQAGCRVAIYLSERL
Take B1: the binding entry in assay [1] and in assay [2] was “binds” in each case.
